# Screening data, single-dose tests

Each number is a percent effect as filed. How 0% and 100% were set is not recorded. Most values in the screen are low, and negative values occur. Compounds were drawn at random from those tested, without regard to their results. Two or more numbers in one place are separate tests of the same structure; such repeats can differ widely.

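Phenotypic screen: M. tuberculosis growth, cholesterol and DPPC medium, 4 days; the read-out is not stated. Concentration: 50 µM. Higher reads as more growth inhibition (inferred: compounds with an IC50 in retests scored well above the rest). Of about 69,000 compounds tested this way, about 370 (0.54%) reached 50% or more in at least one test.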

With O=C(O)C(F)(F)F.[H][C@]12CCN(C(=O)c3ccncc3F)[C@@]1([H])CCC(COCC1CC1)O2 (some centres undefined) the screen gave 8.591%. For O=C([C@@H]1CCCO1)N1CCC(Cn2cc(-c3ccsc3)nn2)CC1 the result was 4.192%. With O=C(O)C(F)(F)F.[H][C@@]12CN(Cc3ccc(F)cc3)C[C@]1([H])C(=O)N(c1ccsc1)C2 the screen gave 26.31%. With CC(C)c1noc(CCCC(=O)NC(C)c2ccccn2)n1 (centres undefined) the screen gave 4.963%. CCC1CN(C(=O)c2cncc(C)c2)CCC(=O)N1Cc1ccccc1 (centres undefined) read 7.299% & -4.264%. For Cc1ccc(OCCN(C)Cc2cscn2)cc1 the result was 11.11%. With COc1ccccc1CCNS(=O)(=O)N1CCOCC1 the screen gave -22.41% & -6.423%.

Result for CCCc1noc(CCC(=O)N2CCCC2c2noc(C3CC3)n2)n1 (centres undefined) was -11.41%. CC(=O)N1CCN(CCNS(=O)(=O)c2c(F)cccc2F)CC1 gave -5.938%. COc1cccc2cc(CNCc3ccnc(N4CCCCC4)c3)oc12 gave -9.352%. For Cn1ccc(C(=O)N2CCN(c3cc(C#N)ccn3)CC2)cc1=O the result was 4.372%. Cc1ccc2c(c1)c(CNC(=O)C1CC(=O)N(CCN(C)C)C1)nn2C (centres undefined) gave 3.61% & 2.71%. COc1ccc(Cl)cc1CN1CC(n2cccn2)C1 gave -32.43%. With CS(=O)(=O)N1CCC(CNc2cc(Cl)ccc2C#N)CC1 the screen gave 4.267%.

COc1cc(C)nc(N2CCN(C(=O)COCC(F)(F)F)CC2)n1 read -3.083%. Result for COc1ncccc1CNC(=O)c1cc(C)on1 was -8.927%. CC(=O)N1CC2(CCN(C(=O)C3CC3)CC2)c2cc(C)ccc21 gave -20.56%. O=C(O)C(F)(F)F.O=C(O)C(F)(F)F.[H][C@@]12OCCN(Cc3nccs3)[C@@]1([H])CC[C@H]2OCc1cccc(C)n1 read 17.52%. For O=C(O)C(=O)O.c1cnc(-c2noc(C3CN(Cc4ccc5c(c4)CCO5)C3)n2)nc1 the result was -13.9%. Cc1cc2c(c(=O)n1CCC(=O)O)C=CC(C)(C)O2 gave 8.337%. Result for Cn1c(Cn2ccnc2)nnc1C1CCN(C(=O)c2ccccn2)CC1 was 10.42%.

C=Cn1ncc(CN2CCC(c3ncc(Cl)cc3S(C)(=O)=O)CC2)c1C read -30.91% & -37.18%. Result for O=C(O)C(F)(F)F.O=C(O)C(F)(F)F.O=C(O)C(F)(F)F.[H][C@@]12CO[C@@H](CN3CCN(C)CC3)[C@]1([H])CCN(Cc1ccc(C)cc1)C2 was 17.82%. For CCc1nnsc1C(=O)N1CCCC1c1c(C)nn(C)c1OC (centres undefined) the result was -7.148%. With CC(C)NC(=O)NC[C@H]1OC[C@@H](NCc2ccc(F)cc2)[C@@H]1O the screen gave 9.663%. Result for O=C(O)C(F)(F)F.O=C(O)C(F)(F)F.[H][C@@]12CN(CC)C[C@]1([H])[C@H](OC)CCN2c1ncc(F)cn1 was -2.332%. c1nc(N2CCc3[nH]cnc3C2)c2cc[nH]c2n1 gave -18.69%. With CCc1cnc(N)nc1NCCn1cc(Cl)cn1 the screen gave 3.599% & 11.32%.

CS(=O)(=O)c1ccc(Cl)c(C(=O)NCCC2=CCCCC2)c1 read 1.149%. Cn1cc(C(=O)CC2CCCN2C(=O)c2ccc(Cl)o2)cn1 (centres undefined) read 10.11%. Result for CN(C)C(=O)N1CCOCC2(CCN(c3ncccn3)C2)C1.O=C(O)C(F)(F)F (centres undefined) was 11.04%. For Cc1ccc(C(=O)N(Cc2ccc(F)cc2)C2CC2)c(=O)[nH]1 the result was -14.21%. With O=c1n(Cc2ccccc2F)nc2ncccn12 the screen gave -30.85%. With CCn1cnnc1CNC(=O)c1cc(Cl)ccc1F the screen gave -6.644%. With Cc1nccn1CCN(C)c1cc(C(C)C)nc2ccnn12 the screen gave -2.648%.

For reference, 2 entries once more:

- Cn1cc(C(=O)CC2CCCN2C(=O)c2ccc(Cl)o2)cn1 (centres undefined) : 10.11%
- Cn1c(Cn2ccnc2)nnc1C1CCN(C(=O)c2ccccn2)CC1 : 10.42%

The values are deposited in ChEMBL (CHEMBL3988442, “University of Dundee, Small-Polar-MMV Screening Library” (2021)).